# Laboratory results from the supplement of paper PMC8728848.
# Some of the results follow.
# Columns and labels:
# Experiment in all cases: glycan array binding signal (z-score within array); higher = stronger binding
# Conditions in all cases: glycan notation: IUPAC condensed, linker removed
# [1] = molecular target: Gal(b1-4)GlcNAc(b1-6)GalNAc
# How it was run: (§1)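 Glycan array binding is given as a within-array Z-score, which can be read as non-binding when negative. The arrays, 3228 of them, came from the Consortium for Functional Glycomics database and were retained only where the protein sequence was available. Z-scores were averaged across arrays of the same protein sequence at different concentrations or buffers and across linkers.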
# [2] = molecular target: Gal(b1-4)GlcNAc(b1-6)[Gal(b1-3)]GalNAc
# How it was run: as §1
# [3] = molecular target: Gal(b1-4)GlcNAc(b1-6)[Gal(b1-4)GlcNAc(b1-3)]GalNAc
# How it was run: as §1
# [4] = molecular target: Gal(b1-4)GlcNAc6P
# How it was run: as §1
# [5] = molecular target: Gal(b1-6)Gal
# How it was run: as §1
# [6] = molecular target: Gal3S(b1-3)GalNAc
# How it was run: as §1
# [7] = molecular target: Gal3S(b1-3)GlcNAc
# How it was run: as §1
# [8] = molecular target: Gal3S(b1-3)[Fuc(a1-4)]GlcNAc
# How it was run: as §1
# [9] = molecular target: Gal3S(b1-4)Glc
# How it was run: as §1
# [10] = molecular target: Gal3S(b1-4)Glc6S
# How it was run: as §1
# [11] = molecular target: Gal3S(b1-4)GlcNAc
# How it was run: as §1
# [12] = molecular target: Gal3S(b1-4)[Fuc(a1-3)]Glc6S
# How it was run: as §1
# [13] = molecular target: Gal3S(b1-4)[Fuc(a1-3)]GlcNAc
# How it was run: as §1
# [14] = molecular target: Gal3S(b1-4)[Fuc(a1-3)]GlcNAc6S
# How it was run: as §1
# [15] = molecular target: Gal3S4S(b1-4)GlcNAc
# How it was run: as §1
# [16] = molecular target: Gal3S6S(b1-4)GlcNAc
# How it was run: as §1
# [17] = molecular target: Gal3S6S(b1-4)GlcNAc6S
# How it was run: as §1
# [18] = molecular target: Gal4S(b1-4)GlcNAc
# How it was run: as §1
# [19] = molecular target: Gal4S6S(b1-4)GlcNAc
# How it was run: as §1
# [20] = molecular target: Gal6P(b1-4)GlcNAc
# How it was run: as §1
# [21] = molecular target: Gal6S(b1-3)GlcNAc
# How it was run: as §1
# [22] = molecular target: Gal6S(b1-3)GlcNAc6S
# How it was run: as §1
# [23] = molecular target: Gal6S(b1-4)Glc
# How it was run: as §1
# [24] = molecular target: Gal6S(b1-4)Glc6S
# How it was run: as §1
# [25] = molecular target: Gal6S(b1-4)GlcNAc
# How it was run: as §1
# [26] = molecular target: Gal6S(b1-4)GlcNAc6S
# How it was run: as §1
# [27] = molecular target: GalNAc(a1-3)Gal
# How it was run: as §1
# [28] = molecular target: GalNAc(a1-3)GalNAc
# How it was run: as §1
# [29] = molecular target: GalNAc(a1-3)GalNAc(b1-3)Gal(a1-4)Gal(b1-4)Glc
# How it was run: as §1
# [30] = molecular target: GalNAc(a1-3)GalNAc(b1-3)Gal(a1-4)Gal(b1-4)GlcNAc
# How it was run: as §1
# [31] = molecular target: GalNAc(b1-3)Gal
# How it was run: as §1
# [32] = molecular target: GalNAc(b1-3)Gal(a1-4)Gal(b1-4)GlcNAc
# How it was run: as §1
# [33] = molecular target: GalNAc(b1-3)Gal(a1-4)Gal(b1-4)GlcNAc(b1-3)Gal(b1-4)Glc
# How it was run: as §1
# [34] = molecular target: GalNAc(b1-3)Gal(a1-6)Gal(b1-4)Glc
# How it was run: as §1
# [35] = molecular target: GalNAc(b1-3)GalNAc
# How it was run: as §1
# [36] = molecular target: GalNAc(b1-3)GlcNAc
# How it was run: as §1
# [37] = molecular target: GalNAc(b1-4)Gal(b1-4)Glc
# How it was run: as §1
# [38] = molecular target: GalNAc(b1-4)GlcNAc
# How it was run: as §1
binder,measurement,setting,value
Thrombomodulin Lectin (Mus musculus) (protein) LSALAKLQPTGSQCVEHECFALFQGPATFLDASQACQRLQGHLMTVRSSVAADVISLLLSQSSMDLGPWIGLQLPQGCDDPVHLGPLRGFQWVTGDNHTSYSRWARPNDQTAPLCGPLCVTVSTATEAAPGEPAWEEKPCETETQGFLCEFYFTASCRVDPIPVREDTKEEEGAGEPPVSPTPGSPTGPPSARPVLDEPRVPITQNPCPPLKECPPCAAPDLEGGPSVFIFPPKIKDVLMISLSPMVTCVVVDVSEDDPDVQISWFVNNVEVHTAQTQTHREDYNSTLRVVSALPIQHQDWMSGKAFACAVNNRALPSPIEKTISKPRGPVRAPQVYVLPPPAEEMTKKEFSLTCMITGFLPAEIAVDWTSNGRTEQNYKNTATVLDSDGSYFMYSKLRVQKSTWERGSLFACSVVHEGLHNHLTTKTISRSLGK,glycan array binding signal (z-score),[1],1.21
same,glycan array binding signal (z-score),[2],0.589
same,glycan array binding signal (z-score),[3],-0.371
same,glycan array binding signal (z-score),[4],2.7
same,glycan array binding signal (z-score),[5],-0.072
same,glycan array binding signal (z-score),[6],-0.616
same,glycan array binding signal (z-score),[7],-0.312
same,glycan array binding signal (z-score),[8],-0.592
same,glycan array binding signal (z-score),[9],-0.449
same,glycan array binding signal (z-score),[10],-0.107
same,glycan array binding signal (z-score),[11],-0.17
same,glycan array binding signal (z-score),[12],0.039
same,glycan array binding signal (z-score),[13],0.2
same,glycan array binding signal (z-score),[14],-0.939
same,glycan array binding signal (z-score),[15],-1.16
same,glycan array binding signal (z-score),[16],0.988
same,glycan array binding signal (z-score),[17],-0.274
same,glycan array binding signal (z-score),[18],-0.315
same,glycan array binding signal (z-score),[19],-0.555
same,glycan array binding signal (z-score),[20],-0.268
same,glycan array binding signal (z-score),[21],-1.19
same,glycan array binding signal (z-score),[22],-1.18
same,glycan array binding signal (z-score),[23],-1.09
same,glycan array binding signal (z-score),[24],1.87
same,glycan array binding signal (z-score),[25],-1.11
same,glycan array binding signal (z-score),[26],-1.89
same,glycan array binding signal (z-score),[27],1.55
same,glycan array binding signal (z-score),[28],-0.539
same,glycan array binding signal (z-score),[29],-1.14
same,glycan array binding signal (z-score),[30],-1.14
same,glycan array binding signal (z-score),[31],0.486
same,glycan array binding signal (z-score),[32],0.534
same,glycan array binding signal (z-score),[33],-0.119
same,glycan array binding signal (z-score),[34],-1.12
same,glycan array binding signal (z-score),[35],0.517
same,glycan array binding signal (z-score),[36],-0.517
same,glycan array binding signal (z-score),[37],-0.236
same,glycan array binding signal (z-score),[38],-0.625

# Quoted at random: two entries already listed.
binder,measurement,setting,value
Thrombomodulin Lectin (Mus musculus) (protein) LSALAKLQPTGSQCVEHECFALFQGPATFLDASQACQRLQGHLMTVRSSVAADVISLLLSQSSMDLGPWIGLQLPQGCDDPVHLGPLRGFQWVTGDNHTSYSRWARPNDQTAPLCGPLCVTVSTATEAAPGEPAWEEKPCETETQGFLCEFYFTASCRVDPIPVREDTKEEEGAGEPPVSPTPGSPTGPPSARPVLDEPRVPITQNPCPPLKECPPCAAPDLEGGPSVFIFPPKIKDVLMISLSPMVTCVVVDVSEDDPDVQISWFVNNVEVHTAQTQTHREDYNSTLRVVSALPIQHQDWMSGKAFACAVNNRALPSPIEKTISKPRGPVRAPQVYVLPPPAEEMTKKEFSLTCMITGFLPAEIAVDWTSNGRTEQNYKNTATVLDSDGSYFMYSKLRVQKSTWERGSLFACSVVHEGLHNHLTTKTISRSLGK,glycan array binding signal (z-score),[8],-0.592
same,glycan array binding signal (z-score),[31],0.486
